Reference: patent publication US20260053882A1 (TRUSTEES OF PRINCETON UNIVERSITY, published 2026)

Columns and labels:
[1] = molecular target: T1, His6-SpyTag003 (SpyTag003-Cys, His6-SpyTag003-SUMO-Cys, unlabeled); assay: in vitro reaction overnight at 37° C., SDS-PAGE and western blot
T1 construct: also called SpyTag003 probe; peptide probe
T1 chain: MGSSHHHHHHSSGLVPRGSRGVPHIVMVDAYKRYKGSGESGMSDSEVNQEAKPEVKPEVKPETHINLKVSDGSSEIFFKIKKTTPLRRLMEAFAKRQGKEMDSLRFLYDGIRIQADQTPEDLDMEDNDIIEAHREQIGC

[2] = molecular target: T1, His6-SpyTag003 (SpyTag003-Cys, …); assay: split-site screen 42-43, in vitro reaction, western blot
[3] = molecular target: T1, His6-SpyTag003 (SpyTag003-Cys, …); assay: split-site screen 82-83, in vitro reaction, western blot

B1: FRB-NpuC^cage-SpyC^74-113 (FRB-NpuC^cage-SpyC^74-113-αEGFR-Myc) (other)
chain: GRVAILWHEMWHEGLEEASRLYFGERNVKGMFEVLEPLHAMMERGPQTLKETSFNQAYGRDLMEAQEWCRKYMKSGNVKDLLQAWDLYYHVFRRISGNGNGGEQEVFEYCLEDGSLIRATKDHKFMTVDGQMLPIDEIFERELDLMRVDNLPNGSGGENLYFQGENLYFQGGSGGIKIATRKYLGKQNVYDIGVERDHNFALKNGFIASNCFVETAAPDGYEVATPIEFTVNEDGQVTVDGEATEGDAHTGSTSGSDLGKKLLEAARAGQDDEVRILMANGADVNADDTWGWTPLHLAAYQGHLEIVEVLLKNGADVNAYDYIGWTPLHLAADGHLEIVEVLLKNGADVNASDYIGDTPLHLAAHNGHLEIVEVLLKHGADVNAQDKFGKTAFDISIDNGNEDLAEILQKLNEQKLISEEDL
binding result [1]: no binding (tested: 1 µM fragment, 2 µM probe)

B2: FRB-NpuC^cage-SpyC^43-113 (FRB-NpuC^cage-SpyC^43-113-αEGFR-Myc) (other)
chain: GRVAILWHEMWHEGLEEASRLYFGERNVKGMFEVLEPLHAMMERGPQTLKETSFNQAYGRDLMEAQEWCRKYMKSGNVKDLLQAWDLYYHVFRRISGNGNGGEQEVFEYCLEDGSLIRATKDHKFMTVDGQMLPIDEIFERELDLMRVDNLPNGSGGENLYFQGENLYFQGGSGGIKIATRKYLGKQNVYDIGVERDHNFALKNGFIASNCMELRDSSGKTISTWISDGHVKDFYLYPGKYTFVETAAPDGYEVATPIEFTVNEDGQVTVDGEATEGDAHTGSTSGSDLGKKLLEAARAGQDDEVRILMANGADVNADDTWGWTPLHLAAYQGHLEIVEVLLKNGADVNAYDYIGWTPLHLAADGHLEIVEVLLKNGADVNASDYIGDTPLHLAAHNGHLEIVEVLLKHGADVNAQDKFGKTAFDISIDNGNEDLAEILQKLNEQKLISEEDL
binding result [2]: no binding

B3: FRB-NpuC^cage-SpyC^83-113 (FRB-NpuC^cage-SpyC^83-113-αEGFR-Myc) (other)
chain: GRVAILWHEMWHEGLEEASRLYFGERNVKGMFEVLEPLHAMMERGPQTLKETSFNQAYGRDLMEAQEWCRKYMKSGNVKDLLQAWDLYYHVFRRISGNGNGGEQEVFEYCLEDGSLIRATKDHKFMTVDGQMLPIDEIFERELDLMRVDNLPNGSGGENLYFQGENLYFQGGSGGIKIATRKYLGKQNVYDIGVERDHNFALKNGFIASNCYEVATPIEFTVNEDGQVTVDGEATEGDAHTGSTSGSDLGKKLLEAARAGQDDEVRILMANGADVNADDTWGWTPLHLAAYQGHLEIVEVLLKNGADVNAYDYIGWTPLHLAADGHLEIVEVLLKNGADVNASDYIGDTPLHLAAHNGHLEIVEVLLKHGADVNAQDKFGKTAFDISIDNGNEDLAEILQKLNEQKLISEEDL
binding result [3]: no binding
